Experimental findings from PubChem BioAssay AID493014 (National Center for Advancing Translational Sciences (NCATS), 2011) are described below.

Each structure is given as a SMILES string. Some of the results follow. The main result of the screen is listed elsewhere. These columns were measured beside it and carry no call. Most of these compounds were active or inconclusive in the main read-out, so they are no random draw. Potencies come from curve fits of mixed quality, noted in brackets.

What is called AC50 is the midpoint of the concentration-response curve, whichever way the signal moves.

The test can be described thus: qHTS Assay to Find Inhibitors of Chronic Active B-Cell Receptor Signaling. As to conditions: ABC-DLBCL IkBa-CBG/CBR reporter, luminescence ratio (green luciferase fused to IkBa over red control in TMD8 lymphoma cells), 4 h. In a few lines:
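TMD8 ABC-DLBCL cells carrying doxycycline-inducible green luciferase fused to IkappaBalpha plus unfused red luciferase were exposed to compounds (up to 46 uM) for 4 hrs at 37C. Activity came from the overlap-corrected green/red luminescence ratio.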
Background: qHTS replaces the single test concentration by a dilution series.

Where [1] appears, read: measured here: CBR red luminescence, cell number.
Setting [2] is: measured here: IkBa-CBG green luminescence.

On to `Cn1cc(/C=N/NC(N)=S)c2ccccc21`, for which the AC50 is 22.4 µM [falling, partial curve, poor fit] under setting [1] and 35.5 µM [falling, single point] under setting [2].

Consider `CCOC(=O)C1=C(C)NC(C)=C(C(=O)OCC)C1c1ccccn1`, for which the AC50 under setting [1] was 12.6 µM [rising, partial curve, poor fit].

For `COc1cc(/C=C2\SC(=O)N(CC(=O)Nc3ccccc3F)C2=O)cc(Cl)c1O`, under setting [1], the AC50 is 5.62 µM [falling, partial curve].

`O=C(Nc1cccc(C(=O)Nc2ccccc2F)c1)c1ccccc1`: under setting [1], the AC50 was 14.1 µM [falling, single point].

On to `O=C(NCCN1CCCCC1)Nc1ccccc1Cl`, for which, under setting [1], the AC50 was 10 µM [rising, partial curve, poor fit].

With `CCCN(C(=O)c1cccs1)c1nnc(-c2ccncc2)s1`, under setting [1], the AC50 was 1.26 µM [falling, partial curve, poor fit].

As for `Cc1cc(OCC(=O)N(C)C)c2c(-c3ccccc3)cc(=O)oc2c1`, the AC50 under setting [1] was 13 µM [rising, partial curve].

For the molecule `CC(C)C(=O)N1CCN(c2ccc(NC(=O)c3ccc4c(c3)OCCO4)cc2)CC1`, the AC50 under setting [1] is 0.708 µM [falling, full curve, poor fit].

As to `Cc1occc(=O)c1OC(=O)Nc1ccc(Cl)c(Cl)c1`, under setting [1], the AC50 was 2.31 µM [rising, partial curve].

For the molecule `COc1cc(NC(=O)c2cc(C(C)C)on2)cc(OC)c1OC`, under setting [2], the AC50 is 15.8 µM [falling, partial curve, poor fit].

In the case of `C[C@@H]1C[C@H]2[C@@H]3C[C@H](F)C4=CC(=O)C=C[C@]4(C)[C@@]3(Cl)[C@@H](O)C[C@]2(C)[C@H]1C(=O)COC(=O)C(C)(C)C`, under setting [1], the AC50 is 2.06 µM [rising, full curve, poor fit].

Regarding `COc1ccc(NC(=O)NS(=O)(=O)c2ccc(C)cc2)c(OC)c1`, the AC50 under setting [1] is 11.2 µM [rising, partial curve, poor fit].

For `Cc1onc(-c2ccccc2)c1C(=O)N1CCN(Cc2ccc3c(c2)OCO3)CC1`, under setting [1], the AC50 is 0.316 µM [rising, full curve].

As for `O=C1c2cccnc2Oc2ccc(Cl)cc2N1Cc1ccc(F)cc1`, the AC50 under setting [1] was 29.1 µM [falling, single point].

As to `Cc1cccc(NC(=O)Cn2c(=O)n3nc(CCn4nc(C)cc4C)nc3c3ccccc32)c1`, under setting [1], the AC50 is 3.98 µM [falling, single point].

For `O=C(Nc1cccnc1Cl)c1ccc(S(=O)(=O)N2CCCCCC2)cc1`, the AC50 under setting [1] is 6.51 µM [falling, partial curve, poor fit].

Consider `CCOc1cccc2sc(N(Cc3cccnc3)C(=O)C3CCCCC3)nc12`, for which the AC50 under setting [1] was 2.24 µM [falling, full curve].

`Cc1c(C(=O)N2CCN(c3ccccn3)CC2)sc2ncnc(N3CCOCC3)c12`: the AC50 under setting [1] is 4.11 µM [rising, single point].

Turning to `O=C(Nc1cnccn1)Nc1ccc(Cl)cc1Cl`, under setting [1], the AC50 is 7.08 µM [rising, full curve, poor fit].

Take `O=C(N/N=C\c1cn(-c2ccccc2)nc1-c1ccccc1)c1ccc2c(c1)OCO2`: the AC50 under setting [1] is 8.91 µM [falling, partial curve].

On to `CCOC(=O)N1CCC(n2c(SCC(=O)NCc3ccco3)nc3ccsc3c2=O)CC1`, for which the AC50 under setting [1] is 29.1 µM [falling, single point].

`CC(C)Cc1nc(N2CCC(C(N)=O)CC2)c2nnn(Cc3ccccc3)c2n1`: the AC50 under setting [1] is 2.82 µM [falling, partial curve, poor fit].

Regarding `Nc1ncnc2c1ncn2[C@@H]1O[C@H](CNS(=O)(=O)c2ccc(-c3ccno3)s2)[C@@H](O)[C@H]1O`, the AC50 under setting [1] is 16.4 µM [rising, partial curve, poor fit].

For `COc1cc(C(=O)OCCC(C)C)cc(OC)c1O`, the concentration at half-maximal activity (AC50) under setting [1] was 0.794 µM [rising, full curve, poor fit].

As to `Cc1[nH]c(=O)c(C(=O)/C=C/c2ccccc2)c2c1CCCC2`, the AC50 under setting [1] was 7.31 µM [falling, partial curve].

As for `Cn1c(SCCOc2ccccc2Cl)nnc1-c1cccs1`, the AC50 under setting [1] was 32.6 µM [falling, single point].

As to `Cn1cncc1C#Cc1c(C=O)[nH]c2ccccc12`, under setting [1], the half-maximal activity concentration (AC50) is 10.3 µM [falling, partial curve].

With `O=C(CNC(=O)c1sc2ccccc2c1Cl)Nc1ccccc1F`, the AC50 under setting [1] was 9.2 µM [falling, partial curve].

Take `CSc1nc2nc(-c3ccccc3)cc(=O)n2[nH]1`: the AC50 under setting [1] is 4.11 µM [falling, partial curve].

As for `CC(=O)c1ccc(N2C(=O)N(Cc3cccc(C(F)(F)F)c3)c3ccccc3S2(=O)=O)cc1`, under setting [1], the AC50 is 28.2 µM [falling, single point].

In the case of `CC(C)(C)NC(=O)NC(=O)CSc1nnc(-c2ccccc2F)n1N`, the AC50 under setting [1] is 29.1 µM [rising, single point].

With `CS(=O)(=O)N1CCN(C(=O)c2ccncc2)CC1`, the AC50 under setting [1] was 3.16 µM [rising, partial curve, poor fit].

For `COc1ccccc1NS(=O)(=O)c1cccc(NC(=O)Nc2ccccc2)c1`, the half-maximal activity concentration (AC50) was 13 µM [falling, partial curve] under setting [1] and 23.1 µM [rising, partial curve, poor fit] under setting [2].

Consider `O=C(Cn1nc(-c2ccccc2)ccc1=O)NCc1ccc(F)cc1Cl`, for which the AC50 under setting [1] was 2.82 µM [falling, single point].

Take `COc1ccccc1Nc1nn2c(=O)c3ccc(C(=O)N4CCC(C)CC4)cc3nc2s1`: the half-maximal activity concentration (AC50) under setting [1] was 15.8 µM [falling, partial curve, poor fit].

Consider `Cn1nnnc1SCC(=O)N1CCN(c2ccc(Cl)cc2)CC1`, for which the AC50 under setting [1] is 6.51 µM [rising, single point].

Turning to `CCOC(=O)c1[nH]c(C)c(C(=O)OCC)c1C`, the AC50 was 1.64 µM [rising, full curve, poor fit] under setting [1] and 14.6 µM [falling, partial curve] under setting [2].

As for `CCOC(=O)c1ccccc1NC(=O)N[C@@H](C)C(=O)OC`, the AC50 under setting [1] was 23.1 µM [falling, single point].

Take `CCN(Cc1ccncc1)C(=O)c1cc(COc2ccc(C)c(C)c2)on1`: the AC50 under setting [1] is 17.8 µM [falling, single point].
